PubChem BioAssay AID1508597 – Cure First, 2020
Assay: 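Knock-downs altering ovarian cancer cell survival with or without PARP inhibitor rucaparib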 (primary screen). System: human ovarian carcinoma lines grown from tumours: OCI-P5x (papillary serous) and OCI-C5x (clear cell). Reagent: siRNA pool against human genes, 1.25 pmol siRNA per well. Duration: 72 h or 96 h, depending on the cell culture. Challenge: rucaparib 20 µM (about IC30) or vehicle, present until read-out. Detection: 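ATP luminescence measured at 72 or 96 h according to the culture, then normalised and expressed as percent viability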. Direction: viability, normalised: higher = more viable cells remaining. Call rule: 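Active when normalised viability falls below 80 percent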. Calls: active = viability under 80%; inactive = viability 80% or more.
The whole screen tested about 2,100 reagents; this is an unselected part. 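Calls flag viability under 80% in either arm, not effects specific to rucaparib; the reference for percent is not stated.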 A number with no mark means an inactive call. Not stated in the record: the 100% reference.

viability, normalised (%) | gene knocked down | rucaparib or vehicle | cell line | technical replicate
54.8 (active) | PDE1C (GeneID 5137) | Rucaparib | OCI-C5x (clear cell) | 1
48.4 (active) | PDE1C (GeneID 5137) | Rucaparib | OCI-C5x (clear cell) | 2
53 (active) | PDE1C (GeneID 5137) | Rucaparib | OCI-C5x (clear cell) | 3
56.7 (active) | PDE1C (GeneID 5137) | Rucaparib | OCI-P5x (serous) | 1
44.5 (active) | PDE1C (GeneID 5137) | Rucaparib | OCI-P5x (serous) | 2
49.1 (active) | PDE1C (GeneID 5137) | Rucaparib | OCI-P5x (serous) | 3
67.1 (active) | PDE1C (GeneID 5137) | Vehicle | OCI-C5x (clear cell) | 1
45.2 (active) | PDE1C (GeneID 5137) | Vehicle | OCI-C5x (clear cell) | 2
45.4 (active) | PDE1C (GeneID 5137) | Vehicle | OCI-C5x (clear cell) | 3
63 (active) | PDE1C (GeneID 5137) | Vehicle | OCI-P5x (serous) | 1
70.7 (active) | PDE1C (GeneID 5137) | Vehicle | OCI-P5x (serous) | 2
68.4 (active) | PDE1C (GeneID 5137) | Vehicle | OCI-P5x (serous) | 3
63.3 (active) | MPG (GeneID 4350) | Rucaparib | OCI-C5x (clear cell) | 1
52.8 (active) | MPG (GeneID 4350) | Rucaparib | OCI-C5x (clear cell) | 2
75.1 (active) | MPG (GeneID 4350) | Rucaparib | OCI-C5x (clear cell) | 3
93.9 | MPG (GeneID 4350) | Rucaparib | OCI-P5x (serous) | 1
89.3 | MPG (GeneID 4350) | Rucaparib | OCI-P5x (serous) | 2
87.4 | MPG (GeneID 4350) | Rucaparib | OCI-P5x (serous) | 3
62.9 (active) | MPG (GeneID 4350) | Vehicle | OCI-C5x (clear cell) | 1
64 (active) | MPG (GeneID 4350) | Vehicle | OCI-C5x (clear cell) | 2
57.7 (active) | MPG (GeneID 4350) | Vehicle | OCI-C5x (clear cell) | 3
101 | MPG (GeneID 4350) | Vehicle | OCI-P5x (serous) | 1
67.5 (active) | MPG (GeneID 4350) | Vehicle | OCI-P5x (serous) | 2
89.6 | MPG (GeneID 4350) | Vehicle | OCI-P5x (serous) | 3
67.6 (active) | ASXL2 (GeneID 55252) | Rucaparib | OCI-C5x (clear cell) | 1
45.7 (active) | ASXL2 (GeneID 55252) | Rucaparib | OCI-C5x (clear cell) | 2
51 (active) | ASXL2 (GeneID 55252) | Rucaparib | OCI-C5x (clear cell) | 3
76.3 (active) | ASXL2 (GeneID 55252) | Rucaparib | OCI-P5x (serous) | 1
73.5 (active) | ASXL2 (GeneID 55252) | Rucaparib | OCI-P5x (serous) | 2
68.4 (active) | ASXL2 (GeneID 55252) | Rucaparib | OCI-P5x (serous) | 3
45.9 (active) | ASXL2 (GeneID 55252) | Vehicle | OCI-C5x (clear cell) | 1
75.3 (active) | ASXL2 (GeneID 55252) | Vehicle | OCI-C5x (clear cell) | 2
38.1 (active) | ASXL2 (GeneID 55252) | Vehicle | OCI-C5x (clear cell) | 3
89.5 | ASXL2 (GeneID 55252) | Vehicle | OCI-P5x (serous) | 1
95.4 | ASXL2 (GeneID 55252) | Vehicle | OCI-P5x (serous) | 2
101 | ASXL2 (GeneID 55252) | Vehicle | OCI-P5x (serous) | 3
36.5 (active) | MBD3 (GeneID 53615) | Rucaparib | OCI-C5x (clear cell) | 1
18.8 (active) | MBD3 (GeneID 53615) | Rucaparib | OCI-C5x (clear cell) | 2
29.9 (active) | MBD3 (GeneID 53615) | Rucaparib | OCI-C5x (clear cell) | 3
40.6 (active) | MBD3 (GeneID 53615) | Rucaparib | OCI-P5x (serous) | 1
44.1 (active) | MBD3 (GeneID 53615) | Rucaparib | OCI-P5x (serous) | 2
46.3 (active) | MBD3 (GeneID 53615) | Rucaparib | OCI-P5x (serous) | 3
29.4 (active) | MBD3 (GeneID 53615) | Vehicle | OCI-C5x (clear cell) | 1
26.5 (active) | MBD3 (GeneID 53615) | Vehicle | OCI-C5x (clear cell) | 2
27.2 (active) | MBD3 (GeneID 53615) | Vehicle | OCI-C5x (clear cell) | 3
41.9 (active) | MBD3 (GeneID 53615) | Vehicle | OCI-P5x (serous) | 1
42.2 (active) | MBD3 (GeneID 53615) | Vehicle | OCI-P5x (serous) | 2
48 (active) | MBD3 (GeneID 53615) | Vehicle | OCI-P5x (serous) | 3

7 of these entries, reformatted.
PDE1C (GeneID 5137), rucaparib or vehicle Vehicle, cell line OCI-C5x (clear cell), technical replicate 3 | viability, normalised (%): 45.4 (active)
PDE1C (GeneID 5137), rucaparib or vehicle Vehicle, cell line OCI-P5x (serous), technical replicate 1 | viability, normalised (%): 63 (active)
PDE1C (GeneID 5137), rucaparib or vehicle Vehicle, cell line OCI-P5x (serous), technical replicate 2 | viability, normalised (%): 70.7 (active)
PDE1C (GeneID 5137), rucaparib or vehicle Vehicle, cell line OCI-P5x (serous), technical replicate 3 | viability, normalised (%): 68.4 (active)
MPG (GeneID 4350), rucaparib or vehicle Rucaparib, cell line OCI-C5x (clear cell), technical replicate 1 | viability, normalised (%): 63.3 (active)
MPG (GeneID 4350), rucaparib or vehicle Rucaparib, cell line OCI-C5x (clear cell), technical replicate 2 | viability, normalised (%): 52.8 (active)
MPG (GeneID 4350), rucaparib or vehicle Rucaparib, cell line OCI-C5x (clear cell), technical replicate 3 | viability, normalised (%): 75.1 (active)

More entries:
viability, normalised (%) | gene knocked down | rucaparib or vehicle | cell line | technical replicate
43.8 (active) | BUB3 (GeneID 9184) | Rucaparib | OCI-C5x (clear cell) | 1
38.9 (active) | BUB3 (GeneID 9184) | Rucaparib | OCI-C5x (clear cell) | 2
49.3 (active) | BUB3 (GeneID 9184) | Rucaparib | OCI-C5x (clear cell) | 3
63.8 (active) | BUB3 (GeneID 9184) | Rucaparib | OCI-P5x (serous) | 1
74.3 (active) | BUB3 (GeneID 9184) | Rucaparib | OCI-P5x (serous) | 2
66.4 (active) | BUB3 (GeneID 9184) | Rucaparib | OCI-P5x (serous) | 3
26.4 (active) | BUB3 (GeneID 9184) | Vehicle | OCI-C5x (clear cell) | 1
40.5 (active) | BUB3 (GeneID 9184) | Vehicle | OCI-C5x (clear cell) | 2
52.2 (active) | BUB3 (GeneID 9184) | Vehicle | OCI-C5x (clear cell) | 3
58.9 (active) | BUB3 (GeneID 9184) | Vehicle | OCI-P5x (serous) | 1
64.3 (active) | BUB3 (GeneID 9184) | Vehicle | OCI-P5x (serous) | 2
62.3 (active) | BUB3 (GeneID 9184) | Vehicle | OCI-P5x (serous) | 3
61 (active) | MTRF1 (GeneID 9617) | Rucaparib | OCI-C5x (clear cell) | 1
44.8 (active) | MTRF1 (GeneID 9617) | Rucaparib | OCI-C5x (clear cell) | 2
54.4 (active) | MTRF1 (GeneID 9617) | Rucaparib | OCI-C5x (clear cell) | 3
31.3 (active) | MTRF1 (GeneID 9617) | Rucaparib | OCI-P5x (serous) | 1
46.4 (active) | MTRF1 (GeneID 9617) | Rucaparib | OCI-P5x (serous) | 2
39.7 (active) | MTRF1 (GeneID 9617) | Rucaparib | OCI-P5x (serous) | 3
50.7 (active) | MTRF1 (GeneID 9617) | Vehicle | OCI-C5x (clear cell) | 1
56.6 (active) | MTRF1 (GeneID 9617) | Vehicle | OCI-C5x (clear cell) | 2
68.8 (active) | MTRF1 (GeneID 9617) | Vehicle | OCI-C5x (clear cell) | 3
50.1 (active) | MTRF1 (GeneID 9617) | Vehicle | OCI-P5x (serous) | 1
39 (active) | MTRF1 (GeneID 9617) | Vehicle | OCI-P5x (serous) | 2
51.1 (active) | MTRF1 (GeneID 9617) | Vehicle | OCI-P5x (serous) | 3
47.6 (active) | MYO6 (GeneID 4646) | Rucaparib | OCI-C5x (clear cell) | 1
36.5 (active) | MYO6 (GeneID 4646) | Rucaparib | OCI-C5x (clear cell) | 2
40.1 (active) | MYO6 (GeneID 4646) | Rucaparib | OCI-C5x (clear cell) | 3
52.5 (active) | MYO6 (GeneID 4646) | Rucaparib | OCI-P5x (serous) | 1
56.7 (active) | MYO6 (GeneID 4646) | Rucaparib | OCI-P5x (serous) | 2
55.1 (active) | MYO6 (GeneID 4646) | Rucaparib | OCI-P5x (serous) | 3
25.4 (active) | MYO6 (GeneID 4646) | Vehicle | OCI-C5x (clear cell) | 1
28.6 (active) | MYO6 (GeneID 4646) | Vehicle | OCI-C5x (clear cell) | 2
44.7 (active) | MYO6 (GeneID 4646) | Vehicle | OCI-C5x (clear cell) | 3
58.7 (active) | MYO6 (GeneID 4646) | Vehicle | OCI-P5x (serous) | 1
50.3 (active) | MYO6 (GeneID 4646) | Vehicle | OCI-P5x (serous) | 2
66.5 (active) | MYO6 (GeneID 4646) | Vehicle | OCI-P5x (serous) | 3
